Laboratory results taken from publication PMC8394894.
These are yes or no findings as the source states them, for the method shown. In cells and extracts the contact can be indirect. Some entries that bind do so weakly or less than the wild type.

The chains behind the UniProt entries cited, without tags or fusion partners.
UniProt Q6ZNE5: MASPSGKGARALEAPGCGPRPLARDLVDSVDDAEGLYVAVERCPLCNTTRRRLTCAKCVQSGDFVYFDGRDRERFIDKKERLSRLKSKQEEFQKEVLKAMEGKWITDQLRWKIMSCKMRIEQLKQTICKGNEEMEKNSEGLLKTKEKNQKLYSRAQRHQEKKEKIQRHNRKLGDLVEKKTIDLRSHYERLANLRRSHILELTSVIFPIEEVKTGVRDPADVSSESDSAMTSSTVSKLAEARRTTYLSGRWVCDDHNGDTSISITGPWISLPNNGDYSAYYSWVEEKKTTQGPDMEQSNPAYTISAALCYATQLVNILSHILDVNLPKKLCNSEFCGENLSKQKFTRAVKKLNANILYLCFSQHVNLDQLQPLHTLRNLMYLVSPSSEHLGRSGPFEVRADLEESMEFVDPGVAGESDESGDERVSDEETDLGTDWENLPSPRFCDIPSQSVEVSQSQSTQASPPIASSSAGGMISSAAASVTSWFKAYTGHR

Target: 3 × Flag-ATG14 (UniProt Q6ZNE5)
Test: co-IP; HeLa cell lysates overexpressing 3 x Flag-ATG14 incubated with anti-Flag M2 agarose beads at 4 °C overnight, three washes, eluted with 2 x SDS sample buffer, Western blot for SNAP47 and Flag

B1: SNAP47 (synaptosome associated protein 47) (protein, UniProt Q5SQN1 1-464)
chain: MRAARRGLHCAGAERPRRRGRLWDSSGVPQRQKRPGPWRTQTQEQMSRDVCIHTWPCTYYLEPKRRWVTGQLSLTSLSLRFMTDSTGEILVSFPLSSIVEIKKEASHFIFSSITILEKGHAKHWFSSLRPSRNVVFSIIEHFWRELLLSQPGAVADASVPRTRGEELTGLMAGSQKRLEDTARVLHHQGQQLDSVMRGLDKMESDLEVADRLLTELESPAWWPFSSKLWKTPPETKPREDVSMTSCEPFGKEGILIKIPAVISHRTESHVKPGRLTVLVSGLEIHDSSSLLMHRFEREDVDDIKVHSPYEISIRQRFIGKPDMAYRLISAKMPEVIPILEVQFSKKMELLEDALVLRSARTSSPAEKSCSVWHAASGLMGRTLHREPPAGDQEGTALHLQTSLPALSEADTQELTQILRRMKGLALEAESELERQDEALDGVAAAVDRATLTIDKHNRRMKRLT
With B1 the binding was “binds”.
